Test results taken from ChEMBL document CHEMBL3808335, “Discovery of KLS-13019, a Cannabidiol-Derived Neuroprotective Agent, with Improved Potency, Safety, and Permeability” (ACS Med Chem Lett, 2016).
In brackets after ≈: the same amount, converted by molar mass.

Assay: Kinetic aqueous solubility of the compound at pH 7.4
Conditions: buffer

In the case of `C=C(C)[C@@H]1CCC(C)=C[C@H]1c1c(O)cc(CCn2ccnn2)cc1O`, the solubility kinetic is reported as 88 µM (≈ 29.9 µg/mL).
